Earlier results on one molecule are cited in publication PMC4796946 (Nature, 2015).

For this data set the following is noted: cited from earlier work.

For the molecule `O=C1CN=C(c2ccccc2)c2cc(Cl)ccc2N1` [desmethyldiazepam], the “concentration in plasma during treatment” value is “micromolar”.
